Taken from: PubChem BioAssay AID1259315 (Drosophila RNAi Screening Center, 2017)
Shown is one part, drawn at random, of 418 reagents. Of all reagents, 17 (4.1%) are marked active. 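z-scores average two replicate plates; all hits raised ATP and none lowered it.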 Unmarked entries are inactive. The record does not give: the amount of reagent.

Purpose: 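Genes that modify how toxic zinc chloride is to fly cells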 (primary screen)
Cell system: Drosophila S2R+ cells
Reagents: long dsRNA against Drosophila genes
Time to read-out: 5 days (4 days knock-down, then 1 day with zinc)
Conditions: zinc chloride added to 15 mM final for 1 day
Measurement: 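Luminescent measure of total cellular ATP as a survival proxy, read after 4 days of knock-down plus 1 day in 15 mM zinc chloride; z-score averaged across two replicate plates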
Direction: mean ATP z-score: higher = more ATP, more cells surviving zinc
Rule for the call: 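a reagent is active if its z-score lies beyond 1.5 in either direction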

target gene | PubChem SID | mean ATP z-score
CG33128 | SID104180086 | -0.0851
CG33128 | SID104207242 | -0.316
VhaPPA1-1 | SID104203049 | 0.383
VhaPPA1-1 | SID104210178 | -0.00483
VhaPPA1-1 | SID104210179 | 0.118
Vha13 | SID104196687 | 0.592
Vha100-1 | SID104205161 | 4.16 (active)
Vha100-1 | SID104216564 | 0.0614
Vha100-1 | SID104217437 | 0.0972
Ppt2 | SID104182578 | -0.0978
Ppt2 | SID104204571 | -0.353
Ppt2 | SID104218639 | -0.263
Pex1 | SID104191150 | -0.199
cathD | SID104187380 | -0.063
CG7049 | SID104188379 | -0.199
CG7049 | SID104204900 | -0.313
Pex14 | SID104191546 | -0.0682
Pex14 | SID104206883 | -0.36
Lerp | SID104194543 | 0.0229
Lerp | SID104195822 | -0.204
Lerp | SID104195823 | -0.0317
Mvl | SID104196544 | -0.138
Mvl | SID104217246 | 0.691
Mvl | SID104218496 | -0.0927
CG32191 | SID104190314 | -0.228
CG10474 | SID104185785 | -0.0269
rb | SID104198618 | -0.114
rb | SID104206484 | -0.112
CG3902 | SID104190179 | 4.71 (active)
CG3902 | SID104203110 | -0.187
PMP34 | SID104201555 | -0.192
PMP34 | SID104217019 | -0.293
CG1607 | SID104194922 | -0.177
CG1607 | SID104205554 | -0.27
Acsl | SID104187044 | -0.0894
Acsl | SID104213390 | -0.264
Vps26 | SID104202792 | 0.482
Vps26 | SID104214945 | -0.308
CG3376 | SID104184154 | -0.0417
CG3376 | SID104205033 | -0.361

Already shown: entries from further up.
target gene | PubChem SID | mean ATP z-score
CG3376 | SID104184154 | -0.0417
CG3376 | SID104205033 | -0.361
